# Assay results taken from PubChem BioAssay AID493014 (National Center for Advancing Translational Sciences (NCATS), 2011).
# The other results are listed elsewhere or left out. Further columns of the screen follow, without active or inactive calls. Compounds called inactive in the main read-out are mostly missing here. Potencies come from curve fits of mixed quality, noted in brackets.
# Test: qHTS Assay to Find Inhibitors of Chronic Active B-Cell Receptor Signaling
# Details: ABC-DLBCL IkBa-CBG/CBR reporter, luminescence ratio (green luciferase fused to IkBa over red control in TMD8 lymphoma cells), 4 h
# In short: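 TMD8 human ABC-DLBCL cells with doxycycline-inducible IκBα–green luciferase fusion and unfused red luciferase, in 0.5% FBS medium; compounds up to 46 uM, 4 h at 37C. Green/red luminescence ratio, filter-overlap corrected, fitted to concentration-response curves.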
# [1] = measured here: CBR red luminescence, cell number
# [2] = measured here: IkBa-CBG green luminescence
SMILES,AC50 [1],AC50 [2]
O=C(NC(=S)Nc1cccc2ncccc12)c1ccccc1,"7.08 µM [falling, partial curve, poor fit]",–
O=C(NC1=NCCS1)c1cc(-c2ccc(F)cc2)nc2ccccc12,"29.1 µM [falling, single point]",–
Cc1nc2ccc(S(=O)(=O)NCC(=O)N3CCCCC3)cc2s1,"20.6 µM [rising, partial curve, poor fit]",–
CC(C)Nc1cc(C(C)(C)C)nc2c(-c3ccccc3)cnn12,"11.2 µM [rising, partial curve, poor fit]",–
O=C1C=C(Nc2ccc(Cl)cc2Cl)CC(c2ccco2)C1 (stereo not drawn),–,"35.5 µM [falling, single point]"
C/C(=N/NC(=O)c1cccs1)c1c(C)[nH]n(-c2nc3ccccc3s2)c1=O,"4.61 µM [falling, full curve]",–
NC(=O)CC(NC(=O)c1ccccc1)c1ccc(NCCOc2ccccc2)c([N+](=O)[O-])c1 (stereo not drawn),"3.55 µM [rising, single point]",–
CCOc1cccc(-c2cc(-c3n[nH]c(=S)n3CC)c3ccccc3n2)c1,"35.5 µM [falling, single point]",–
CN(Cc1ccco1)c1ncnc2ccc(-c3ccc4c(ccn4C)c3)cc12,–,"9.2 µM [falling, partial curve]"
Cn1c(=O)[nH]c(=O)c2c1nc(CN1CCN(c3cccc(Cl)c3)CC1)n2CCc1ccccc1,"1.64 µM [rising, partial curve]",–
C=CCn1c(O)c(N=NC(=O)c2cccnc2)c2cc(Br)ccc21,"0.1 µM [falling, full curve]",–
CCCc1cc(=O)oc2cc(C)cc(OC(=O)c3ccco3)c12,"2.06 µM [rising, full curve, poor fit]",–
CCCCn1c(-c2csc3c2CCCC3)n[nH]c1=S,"32.6 µM [rising, partial curve, poor fit]",–
CCCOc1ccc(C2C(C(=O)c3ccco3)=C(O)C(=O)N2CCCn2ccnc2)cc1 (stereo not drawn),"0.282 µM [falling, full curve, poor fit]",–
O=C(NC1CCCC1)c1cc2ccccc2o1,"20 µM [falling, single point]",–
CCOc1ccc(C(=O)N2CCN(C(=O)c3ccco3)CC2)cc1OCC,"3.66 µM [rising, partial curve, poor fit]",–

SMILES,AC50 [1],AC50 [2]
CC(C)=CCc1c(O)ccc(C(=O)Cc2ccccc2)c1O,"12.6 µM [rising, partial curve, poor fit]",–
COC(=O)CCNC(=O)Cc1c(C)n(C(=O)c2ccc(Cl)cc2)c2ccc(OC)cc12,"17.8 µM [falling, partial curve, poor fit]",–
Cc1ccc(-n2c(SCC(=O)N3CCC(C(=O)O)CC3)nc3ccccc3c2=O)cc1C,"5.01 µM [falling, partial curve, poor fit]",–
Cc1nc(-c2ccccc2)sc1-c1n[nH]c(=S)n1C,"0.891 µM [rising, full curve, poor fit]",–
COCCn1c(-c2ccccc2)cnc1N,"3.55 µM [rising, partial curve, poor fit]",–
Nc1ccc(C(=O)N/N=C/c2sc(N3CCOCC3)nc2-c2ccccc2)cc1,"20.6 µM [falling, partial curve]","20.6 µM [falling, partial curve, poor fit]"
O=C(N/N=C/c1c[nH]c2ccccc12)c1cc(-c2cccc3ccccc23)n[nH]1,"6.51 µM [rising, single point]",–
Cc1cc(Nc2ccccc2)nn1C(=O)c1ccc(Br)cc1,"10.3 µM [rising, partial curve, poor fit]",–
N#CCCn1cc(C(=O)Nc2ccc([N+](=O)[O-])cc2)c(-c2cc3ccccc3o2)n1,"12.6 µM [rising, single point]",–
N#Cc1c(NC(=O)c2cc([N+](=O)[O-])ccc2N2CCOCC2)sc2c1CCCC2,"2.59 µM [rising, partial curve, poor fit]",–
CCOC(=O)C1CSC(CC(=O)Nc2ccc(OC(F)(F)F)cc2)C(=O)N1 (stereo not drawn),"1 µM [rising, full curve, poor fit]",–
O=C(NC12CC3CC(CC(C3)C1)C2)c1ccc(-c2ccccc2Cl)o1,"8.91 µM [rising, partial curve, poor fit]",–
O=C(Nc1nccs1)c1cc(N2CCOCC2)nc2ccccc12,"5.62 µM [falling, partial curve, poor fit]",–
Cc1cccc(-c2nc3sc(C)cc3c(=O)o2)c1,"3.98 µM [falling, full curve, poor fit]",–
O=C(O)c1nn(CCOc2c(Cl)cccc2Cl)c(=O)c2ccccc12,"3.16 µM [rising, single point]",–
Cc1cc(C)c2cc3c(N)c(C(=O)Nc4c(C)[nH]c(=O)[nH]c4=O)sc3nc2c1,"13 µM [falling, partial curve, poor fit]",–
